# Experiments:
# Format in all cases: cell-based, human
# [1] = test system: MCF-7 (breast carcinoma); experiment: Sulforhodamine B (SRB) assay, MCF-7; conditions: IC50 in HEK-293 / IC50 in MCF-7
# Source text: (§1) Roswell Park Memorial Institute (RPMI)-1640 medium, Dulbecco’s modified eagle medium high glucose (DMEM; Gibco) supplemented with 10% Fetal Bovine Serum (FBS; Gibco, and 1% antibiotic-antimycotic (Gibco; Anti-Anti 100x), phosphate-buffered saline (PBS; Gibco), 0.25% trypsin (Gibco), sodium pyruvate (Sigma-Aldrich), HEPES (Gibco). Human cancer cell lines A549 (lung carcinoma), MCF-7 (breast carcinoma), MDAMB-231 (breast carcinoma), A375 (melanoma), and normal human embryonic kidney cells (HEK-293) were taken from Dr. Sheikh Tasduq Abdullah and Dr. Boobalan Gopu (CSIR-IIIM).
# (§2) Their activity was tested against human cancer cell lines A549 (lung carcinoma), MCF-7 (breast carcinoma), MDAMB-231 (breast carcinoma), and A375 (melanoma). The selectivity index (SI) was calculated against normal human embryonic kidney cells (HEK-293) to determine cytotoxic selectivity. The cells (7 × 10^3 cells/well) were seeded on 96 well plates, followed by overnight incubation. Multiple concentrations (50 µM, 20 µM, 10 µM, 5 µM, and 1 µM) of compounds were used to treat the cells, except for control wells that contained only cells with media. After 48 h of incubation, the cells attached to wells were fixed with 50 µL of chilled 50% TCA, and the plate was kept at 4°C for 1 h, as described previously ([Malik et al., 2023]; [Kumar et al., 2024]). The plate was washed (3–4 times) with distilled water (250 µL/well) and air-dried for 24 h. The next day, 100 µL of 0.4% SRB dye was added to each well, and the cells were incubated at room temperature for 1 h. The plate contents were discarded and washed 3 times with 1% glacial acetic acid (250 µL/well), followed by one last wash with distilled water and air drying for another 24 h. Subsequently, 100 µL of Tris base (10 mM, pH 10.5) was added to each well to dissolve the dye bound to fixed cells. The dissolved dye indicating growth inhibition was quantified by calculating optical density at 540 nm via microplate reader (Tecan infinite M200PRO, Switzerland). The IC50 values were calculated using GraphPad Prism Software Version 5.0. A favorable Selectivity Index (SI) is the most relevant parameter to detect anti-cancer potential in vitro as it indicates drug safety against cancer cells versus normal cells, efficacy of the drug, and selectivity. The selectivity index is calculated by using the formula. Selective Index=IC50 in Normal cells/IC50 in Cancerous cell lines
# [2] = test system: A375 (melanoma); experiment: Sulforhodamine B (SRB) assay, A375; conditions: IC50 in HEK-293 / IC50 in A375
# Source text: as §1
# as §2, with “Subsequently, 100 µL of Tris base (10 mM, pH 10.5) was added to each well to dissolve the dye bound to fixed cells.” left out, “A favorable Selectivity Index (SI) is the most relevant parameter to detect anti-cancer potential in vitro as it indicates drug safety against cancer cells versus normal cells, efficacy of the drug, and selectivity.” left out, “Selective Index=IC50 in Normal cells/IC50 in Cancerous cell lines” left out
# [3] = test system: MDA-MB 231 (breast carcinoma); experiment: Sulforhodamine B (SRB) assay, MDA-MB 231; conditions: IC50 in HEK-293 / IC50 in MDA-MB 231
# Source text: as §1
# Their activity was tested against human cancer cell lines A549 (lung carcinoma), MCF-7 (breast carcinoma), MDAMB-231 (breast carcinoma), and A375 (melanoma). The selectivity index (SI) was calculated against normal human embryonic kidney cells (HEK-293) to determine cytotoxic selectivity. The cells (7 × 10^3 cells/well) were seeded on 96 well plates, followed by overnight incubation. […] The dissolved dye indicating growth inhibition was quantified by calculating optical density at 540 nm via microplate reader (Tecan infinite M200PRO, Switzerland). The IC50 values were calculated using GraphPad Prism Software Version 5.0. […] The selectivity index is calculated by using the formula. […]
Compound,SI MCF-7 [1],SI A375 [2],SI MDA-MB 231 [3]
"COc1c(OC)c2c(c(C3NC(=O)NC(C)=C3C(=O)Oc3ccccc3)c1OC)CC[C@@H](NC(C)=O)c1cc(=O)c(OC)ccc1-2 (stereo partly drawn) [Compound 3c, phenyl 4-((R)-7-acetamido-1,2,3,10-tetramethoxy-9-oxo-5,6,7,9-tetrahydrobenzo [a]heptalen-4-yl)-6-methyl-2-oxo-1,2,3,4-tetrahydropyrimidine-5-carboxylate]",0.79,–,–
"CCOC(=O)C1=C(OCC)NC(=O)NC1c1c2c(c(OC)c(OC)c1OC)-c1ccc(OC)c(=O)cc1[C@H](NC(C)=O)CC2 (stereo partly drawn) [Compound 3h, ethyl 4-((R)-7-acetamido-1,2,3,10-tetramethoxy-9-oxo-5,6,7,9-tetrahydrobenzo [a]heptalen-4-yl)-6-ethoxy-2-oxo-1,2,3,4-tetrahydropyrimidine-5-carboxylate]",0.53,0.75,–
"CCOC(=O)C1=C(C(Cl)(Cl)Cl)NC(=O)NC1c1c2c(c(OC)c(OC)c1OC)-c1ccc(OC)c(=O)cc1[C@H](NC(C)=O)CC2 (stereo partly drawn) [Compound 3d, Ethyl 4-((R)-7-acetamido-1,2,3,10-tetramethoxy-9-oxo-5,6,7,9-tetrahydrobenzo [a]heptalen-4-yl)-2-oxo-6-(trichloromethyl)-1,2,3,4-tetrahydropyrimidine-5-carboxylate]",0.82,–,–
"CCOC(=O)C1=C(C)NC(=N)NC1c1c2c(c(OC)c(OC)c1OC)-c1ccc(OC)c(=O)cc1[C@H](NC(C)=O)CC2 (stereo partly drawn) [Compound 3b, Ethyl 4-((R)-7-acetamido-1,2,3,10-tetramethoxy-9-oxo-5,6,7,9-tetrahydrobenzo [a]heptalen-4-yl)-2-imino-6-methyl-1,2,3,4-tetrahydropyrimidine-5-carboxylate]",0.85,–,–
"CCOC(=O)C1=C(c2cc(F)c(Cl)nc2Cl)NC(=O)NC1c1c2c(c(OC)c(OC)c1OC)-c1ccc(OC)c(=O)cc1[C@H](NC(C)=O)CC2 (stereo partly drawn) [Compound 3e, Ethyl 4-((R)-7-acetamido-1,2,3,10-tetramethoxy-9-oxo-5,6,7,9-tetrahydrobenzo [a]heptalen-4-yl)-6-(2,6-dichloro-5-fluoropyridin-3-yl)-2-oxo-1,2,3,4-tetrahydropyrimidine-5-carboxylate]",0.89,–,–
CCOC(=O)C1=C(C)NC(=S)NC1c1c2c(c(OC)c(OC)c1OC)-c1ccc(OC)c(=O)cc1[C@H](NC(C)=O)CC2 (stereo partly shown) [Compound 3a],0.73,–,–
"CCOC(=O)C1=C(C(F)(F)C(F)(F)F)NC(=O)NC1c1c2c(c(OC)c(OC)c1OC)-c1ccc(OC)c(=O)cc1[C@H](NC(C)=O)CC2 (stereo partly drawn) [Compound 3f, Ethyl 4-((R)-7-acetamido-1,2,3,10-tetramethoxy-9-oxo-5,6,7,9-tetrahydrobenzo [a]heptalen-4-yl)-2-oxo-6-(perfluoroethyl)-1,2,3,4-tetrahydropyrimidine-5-carboxylate]",0.67,0.62,0.38
"CCOC(=O)C1=C(C(F)(F)C(F)(F)F)NC(=O)NC1c1c2c(c(OC)c(OC)c1OC)-c1ccc(OC)c(=O)cc1[C@@H](NC(C)=O)CC2 (stereo partly drawn) [Compound 3g, Ethyl 4-((S)-7-acetamido-1,2,3,10-tetramethoxy-9-oxo-5,6,7,9-tetrahydrobenzo [a]heptalen-4-yl)-2-oxo-6-(perfluoroethyl)-1,2,3,4-tetrahydropyrimidine-5-carboxylate]",1.005,1.52,0.63

# Source: paper PMC12246756 (Frontiers in Pharmacology, 2025)
